No constants are given. Whether binding was seen depends on the method and setting. In cells and extracts the contact can be indirect. Some entries that bind do so weakly or less than the wild type.
B1: CARD9, Q9H257 1-536 (protein)
chain: MSDYENDDECWSVLEGFRVTLTSVIDPSRITPYLRQCKVLNPDDEEQVLSDPNLVIRKRKVGVLLDILQRTGHKGYVAFLESLELYYPQLYKKVTGKEPARVFSMIIDASGESGLTQLLMTEVMKLQKKVQDLTALLSSKDDFIKELRVKDSLLRKHQERVQRLKEECEAGSRELKRCKEENYDLAMRLAHQSEEKGAALMRNRDLQLEIDQLKHSLMKAEDDCKVERKHTLKLRHAMEQRPSQELLWELQQEKALLQARVQELEASVQEGKLDRSSPYIQVLEEDWRQALRDHQEQANTIFSLRKDLRQGEARRLRCMEEKEMFELQCLALRKDSKMYKDRIEAILLQMEEVAIERDQAIATREELHAQHARGLQEKDALRKQVRELGEKADELQLQVFQCEAQLLAVEGRLRRQQLETLVLSSDLEDGSPRRSQELSLPQDLEDTQLSDKGCLAGGGSPKQPFAALHQEQVLRNPHDAGLSSGEPPEKERRRLKESFENYRRKRALRKMQKGWRQGEEDRENTTGSDNTDTEGS
B2: BCL10 (protein, UniProt O95999 1-233)
chain: MEPTAPSLTEEDLTEVKKDALENLRVYLCEKIIAERHFDHLRAKKILSREDTEEISCRTSSRKRAGKLLDYLQENPKGLDTLVESIRREKTQNFLIQKITDEVLKLRNIKLEHLKGLKCSSCEPFPDGATNNLSRSNSDESNFSEKLRASTVMYHPEGESSTTPFFSTNSSLNLPVLEVGRTENTIFSSTTLPRPGDPGAPPLPPDLQLEEEGTCANSSEMFLPLRSRTVSRQ

By UniProt entry, the sequences of proteins in these tests, tags left out.
UniProt Q04206: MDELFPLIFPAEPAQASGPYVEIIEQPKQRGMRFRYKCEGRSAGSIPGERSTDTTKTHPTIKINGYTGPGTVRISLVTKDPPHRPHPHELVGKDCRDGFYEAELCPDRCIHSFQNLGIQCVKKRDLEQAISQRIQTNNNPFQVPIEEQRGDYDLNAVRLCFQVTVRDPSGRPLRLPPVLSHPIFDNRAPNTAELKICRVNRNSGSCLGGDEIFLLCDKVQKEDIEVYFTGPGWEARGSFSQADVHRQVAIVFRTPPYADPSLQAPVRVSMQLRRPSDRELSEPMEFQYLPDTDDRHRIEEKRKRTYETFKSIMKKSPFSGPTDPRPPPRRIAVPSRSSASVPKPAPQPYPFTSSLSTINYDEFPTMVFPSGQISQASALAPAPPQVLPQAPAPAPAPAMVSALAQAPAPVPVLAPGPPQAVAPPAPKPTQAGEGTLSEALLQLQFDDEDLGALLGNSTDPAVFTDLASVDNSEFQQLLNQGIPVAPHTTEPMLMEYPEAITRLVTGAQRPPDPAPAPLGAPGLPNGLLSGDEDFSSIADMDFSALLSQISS
UniProt Q9UDY8: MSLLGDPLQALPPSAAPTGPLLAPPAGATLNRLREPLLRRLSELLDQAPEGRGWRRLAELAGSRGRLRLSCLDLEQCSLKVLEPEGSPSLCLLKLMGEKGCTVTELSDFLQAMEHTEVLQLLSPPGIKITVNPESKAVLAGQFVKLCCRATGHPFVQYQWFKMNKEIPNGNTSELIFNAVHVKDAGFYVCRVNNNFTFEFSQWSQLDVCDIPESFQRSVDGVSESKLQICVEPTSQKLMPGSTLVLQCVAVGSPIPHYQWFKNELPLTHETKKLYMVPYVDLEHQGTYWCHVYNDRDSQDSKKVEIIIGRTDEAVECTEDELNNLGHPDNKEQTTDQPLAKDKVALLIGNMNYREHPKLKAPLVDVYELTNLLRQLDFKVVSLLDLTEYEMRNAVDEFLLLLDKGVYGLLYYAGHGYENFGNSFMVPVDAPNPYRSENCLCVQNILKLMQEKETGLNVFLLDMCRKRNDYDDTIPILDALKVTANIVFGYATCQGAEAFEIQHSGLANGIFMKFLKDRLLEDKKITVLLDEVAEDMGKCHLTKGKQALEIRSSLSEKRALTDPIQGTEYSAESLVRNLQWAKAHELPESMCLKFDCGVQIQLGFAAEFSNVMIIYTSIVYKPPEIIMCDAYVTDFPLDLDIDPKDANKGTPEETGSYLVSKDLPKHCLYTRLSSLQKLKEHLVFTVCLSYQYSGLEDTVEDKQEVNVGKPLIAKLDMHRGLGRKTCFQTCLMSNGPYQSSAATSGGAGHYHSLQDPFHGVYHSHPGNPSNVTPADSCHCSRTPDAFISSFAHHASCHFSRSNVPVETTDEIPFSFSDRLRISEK

Columns and labels:
[1] = biological target: p65 (human (endogenous in U-RT1)) (UniProt Q04206); test: co-IP; control anti-p65 (rabbit) immunoprecipitation from whole protein extract of U-RT1 cells in TNT++ buffer, overnight at 4 °C, protein G Sepharose; immunoblots for MALT1, p65 and BCL10
[2] = biological target: T1, BCL10 (human (endogenous in U-RT1 and HBL-1)) (UniProt O95999); test: co-IP; anti-BCL10 (goat, C17) immunoprecipitation from 0.5-1 mg whole protein extract of U-RT1 and HBL-1 cells in TNT++ buffer (20 mM Tris pH 8.0, 200 mM NaCl, 1% Triton-X100, 1 mM DTT), overnight at 4 °C, protein G Sepharose; immunoblots for MALT1, CARD9 and BCL10
T1 sequence: B2 chain

[3] = biological target: T2, BCL10 (human (endogenous in U-RT1 and HBL-1)), O95999; test: as above; conditions: remark: other sources report otherwise
T2 chain: B2 chain

Row | binding [1] | binding [2] | binding [3] | Molecule
1 | no binding | binds | – | MALT1 (from UniProt Q9UDY8 1-824)
2 | – | – | binds | B1
3 | no binding | – | – | B2

From paper PMC8833648
